Out of some 1,400 compounds screened, about 50 (4%) were called active.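 The calls were made as follows: active = fitted curve reaches 30% CPE protection at or below the top valid dose, with every test run called active; inconclusive = test runs disagree, some active and some not; inactive = every test run inactive, including effects in the wrong direction.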 The list shows a part of the results. Entries with a potency or affinity are not part of this list.
Experiment: Dengue virus 2 cytopathic effect protection, dose response, BHK-21 cells, ATP luminescence, cherry-pick (AID 687031);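 also: 0% = infected DMSO wells and 100% = uninfected cell wells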
Conditions: BHK-21 DENV2 CPE protection, 5 d; at 19.5 µM (top of the series) unless noted

CPE protection (higher = active), inactive:
CN(C)S(=O)(=O)N1CCC(Oc2ccc(C(=O)N3CCCCCCC3)cc2)CC1 -20.8%, CC(OC(=O)c1ccc(O)cc1)C(=O)Nc1nc(-c2ccccc2)cs1 (configuration not stated) 25.2%, CCn1c(=O)n(CC)c2cc(N3CCCC3)c(NC(=O)c3ccc(C)cc3)cc21 -11.9%, CC(C)C(=O)Nc1nnc(S(=O)(=O)N2CCc3ccccc32)s1 5.09%, Cc1ccc(-c2csc(NC(=O)c3ccc(S(=O)(=O)N4CCc5ccccc54)cc3)n2)cc1 -18%, O=C(c1ccc2c(c1)OCO2)N1CCC(Cc2ccccc2)CC1 -8.26%, COc1cccc(CNC(=O)[C@@H]2CCCN2C(=O)[C@H]2CCCCN2C(=O)c2ccc(Cl)cc2)c1 -6.07% [at 10 µM], C[C@@H](NC(=O)C[C@@H]1CC[C@H]2[C@@H](COC[C@H](O)CN2C(=O)Nc2ccccc2)O1)c1ccccc1 -1.39%, COc1ccc(C(CNC(=O)c2cccc3cccnc23)N(C)C)cc1 (configuration not stated) -6.53%, Cc1ccnc(NC(=O)C(Cc2ccccc2)NC(=O)c2ccccc2)c1 (configuration not stated) -3.76%, CC(C)[C@H](NC(=O)c1cccs1)C(=O)N1CCC[C@H]1C(=O)NCc1ccccc1 3.64%, Cn1c(N)c(C(=O)N2CCN(c3ccccc3)CC2)c(=O)n(C)c1=O 0.064%, COc1ccc(S(=O)(=O)N2CC3(CN(C(=O)CN(C)C)[C@H](CO)c4c3c3ccc(OC)cc3n4C)C2)cc1 7.36%, COc1cccc(CN(C)S(=O)(=O)c2cccs2)c1 4.46%, FC(F)(F)c1nc2ccccc2n1CCNc1nc(CN2CCCCC2)cs1 -11.7%, CCCn1c(=O)c(C(=O)NNS(=O)(=O)c2ccc(C)cc2)c(O)c2ccccc21 1.54%, CC1(C(=O)NS(=O)(=O)c2cccc(Cl)c2)CCN1C(=O)COc1ccc(Cl)cc1 (configuration not stated) -12.1%, CCCC(=O)OC[C@H]1CN(C2CCCC2)S(=O)(=O)c2c(F)cccc2O1 6.18%, COc1cc(C2NC(=O)NC(C)=C2C(=O)OC2CCCC(C)C2)cc(Br)c1O (configuration not stated) -5.33%, COc1ccccc1C(CNc1ncnc2sc(C)c(C)c12)N(C)C (configuration not stated) 9.26%, C/C=C/c1cnc2c(c1)C(=O)N([C@H](C)CO)C[C@H](C)[C@H](CN(C)S(=O)(=O)c1ccccc1)O2 11.8%, CC(=O)Nc1ccc(OCCCN2CCC(C(O)(c3ccccc3)c3ccccc3)CC2)cc1 4.34%

Reference: PubChem BioAssay AID687031 (Broad Institute, 2013)
